This is an account of results in the DeepSol protein solubility set.

The data set can be described thus: soluble on expression in E. coli; label from the status in PepcDB or PDB records.

With “MKQAFRVALGFLVLWASVLHAEVRIEITQGVDSARPIGVVPFKWMGPGTPPEEIGAIVGADLRNSGKFNPIDAARMPQQPSTAAEVTPAAWTALGIDAVVVGQVQPSADGSYVVSYQLVDTSGSAGSILAQNQYKVTKQWLRYSAHTVSDEVFEKLTGIKGAFRTRIAYVVKTNGGKFPHELRVSDYDGYNQFVVHRSPEPLMSPAWSPDGSKIAYVTFESGKSALVIQTLANGAIRQVASFPRHNGAPAFSPDGTKLAFALSKSGSLNLYVMDLASGQISQVTDGRSNNTEPSWFPDSQNLAYTSDQGGRPQVYKVNINGGVPQRITWEGSQNQNADVSPDGKFLVLVSSNGGAQHIAKQDLETGAVQVLTDTLLDETPSIAPNGTMVIYSSTQGLGSVLQLVSTDGRFKARLPATDGQVKFPAWSPYL”, the “soluble on expression in E. coli” value is “not soluble”.

Regarding “MGRKKIQITRIQDERNRQVTFTKRKFGLMKKAYELSVLCDCEIALIVFNSTNKLFQYASTDMDKVLLKYTEYNEPHESRTNNDIMEALNRKEGNQGGGNSDDESPGPSTSPVIQITMPAVVNGHSSNNSVASAASASAAAVAAAAAAVAAVEGTSSGAAAAAAALQASNAQRHHNLNLYQNLIFNPNYTRHLNQRNDPLSSTSVAPSSSSSKHLDFPPSTSFAYDTSRLHPIAAADADCDLVPSSRAAADQNIWSSALQQRPVSQPAPSISNSSTNGISNGTSSLLSPNVSSLNGHSVLDLGGPNLPYKLDPNTYVKMEPHSPPEKRPRITTEWRPQQLT”, the “soluble on expression in E. coli” value is recorded as “not soluble”. Turning to “PWQKFIIYSLLGFYIKGTIIRRFKEAFIFLPRKNGKTRFVAALSWALALLERKSGSKIYIVGAALEQSLQSFNFINFNIKEMGEEDSFRVLDNNQEHSISGDFGDGSLYIKALAANPDRQDSLNCNVGIADELHAYKTPKQYNIIKEAMKAYTNKLMIGITTAGDNMSSFCYQRLQYCKKILDDTVKDEAYFVFIAKADEDEKGEVDYTDPKQHEKANPNYGITIRPADMTNDSLQAQNDPQQRKDFLSKSLNIYTSAMKAYFNIDEFKASDSKYNWTLEELAKLPIKWYGGADLAKLHDLTAAALYGRYVMDDGTEVDIVITHAFFPIVMANKKADEDNIPLFGWKDDGVLTMTNTPTTNFAVIVNWFKEMKNKGFDIKLVGFDKKFGREFFYLMKKSGIKIVDQPQYFYKKSEGFRRIETKAKDGHFYYCHNQSFEYCVQNVRAIEKTDDMIQYEKVDGDGGSQRIDLFDAAVFGAVQMLEDIQMSAVASKWLNSN”, the “soluble on expression in E. coli” value is given as “not soluble”.

“MVDVPRNFRLLEELEEGQKGKGDGNISWGLEDDSDMTLTRWTASIIGPPRTPYESRIYNLQIQCGGNYPREPPTVRFTTKVHMVGVNQSNGVIDKRNLTTLRNWSNSYMIKTVLEDIRKNMMMAKENLKLQQPAEGAMF”: the “soluble on expression in E. coli” value is listed as “not soluble”. The result for “MSLDEVQNVDDQHLLLHDQTVIRKGPISMTKNPLNLPCQKELVGAVMNPTEVFCSVPGRLSLLSSTSKYKVTVAEVQRRLSPPECLNASLLGGVLRRAKSKNGGRSLREKLDKIGLNLPAGRRKAAHVTLLTSLVEGEAVHLARDFAYVCEAEFPSKPVAEYLTRPHLGGRNEMAARKNMLLAAQQLCKEFTELLSQDRTPHGTSRLAPVLETNIQNCLSHFSLITHGFGSQAICAAVSALQNYIKEALIVIDKSYMNPGDQSPADSNKTLEKMEKHREGHHHHHH” reads “soluble”; that for “MGSAIQDYFVKNRVGHSKPWESGKFKAADNFPDLSKHNNVMASQLTKELYEKYWDKVTPNGVTFDKCIQTGVDNPGNKFYGKKTGCVFGDEYSYECYKEFFDKCIEEIHHFKPSDKHPAPDLDHNKLVGGVFEDKYVKSCRIRCGRSVKGVCLPPAMSRAERRLVEKVVSDALGGLKGDLAGKYYPLTTMNEKDQEQLIEDHFLFEKPTGALLTTSGCARDWPDGRGIWHNNEKNFLVWINEEDHIRVISMQKGGDLKAVFSRFARGLLEVERLMKECGHGLMHNDRLGYICTCPTNMGTVVRASVHLRLAFLEKHPRFDEMLGKLRLGKRGTGGESSLATDSTYDISNWARLGKSERELVQVLVDGVNLLIACDKKLEAGQSIDDMIPK”, “soluble”; that for “MSLSDLAKRIVQAADIVTVALDELLPRADGPESRLTEAMRYAALGPGKRLRPFFALETGKMFDLPERPVLRAACALECIHAYSLVHDDLPAMDDDDVRRGRPTVHKQYDEATAILAGDALQTAAFEIMAHPDTHDDGHVRSELVRKLAIASGARGMCGGQMIDLLGVRDDLGAVARMQRLKTGALIAFAFEIPLIIARAKESERSALMAFAQDLGLAYQIVDDILDAEGDEETLGKAAGGKDAAKGKANYVTLLGLDAAKERVTLLAEQTRSHLEIFGERAEHLRASVDFVLDRRNEGHHHHHH”, “soluble”.
